Results are given in words; binding and its absence hold for the method and conditions named. In cells and extracts the contact can be indirect. Some results given as binding are weak or reduced against the parent protein; the word gives no strength. Tags and fused reporters may be left off the sequences shown.

In this assay the target is T1, Myc-TAK1 (UniProt O43318).
T1 sequence: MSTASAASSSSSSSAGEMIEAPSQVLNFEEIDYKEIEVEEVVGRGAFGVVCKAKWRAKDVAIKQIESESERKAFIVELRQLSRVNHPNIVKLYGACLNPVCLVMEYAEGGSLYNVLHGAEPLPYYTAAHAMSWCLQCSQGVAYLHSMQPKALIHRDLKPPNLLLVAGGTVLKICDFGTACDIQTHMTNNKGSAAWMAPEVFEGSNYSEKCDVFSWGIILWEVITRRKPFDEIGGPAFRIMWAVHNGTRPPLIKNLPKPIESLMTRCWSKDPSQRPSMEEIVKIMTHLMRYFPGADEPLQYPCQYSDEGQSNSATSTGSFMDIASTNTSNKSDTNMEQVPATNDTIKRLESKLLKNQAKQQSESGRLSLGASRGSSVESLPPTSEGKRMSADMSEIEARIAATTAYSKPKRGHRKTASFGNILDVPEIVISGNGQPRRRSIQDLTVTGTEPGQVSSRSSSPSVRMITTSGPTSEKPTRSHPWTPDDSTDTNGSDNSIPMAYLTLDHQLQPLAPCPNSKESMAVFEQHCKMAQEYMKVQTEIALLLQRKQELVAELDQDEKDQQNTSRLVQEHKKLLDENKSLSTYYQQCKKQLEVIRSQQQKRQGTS
In words: co-IP.

B1: 3×HA-TAB1 (protein, UniProt Q15750 1-504)
chain: MAAQRRSLLQSEQQPSWTDDLPLCHLSGVGSASNRSYSADGKGTESHPPEDSWLKFRSENNCFLYGVFNGYDGNRVTNFVAQRLSAELLLGQLNAEHAEADVRRVLLQAFDVVERSFLESIDDALAEKASLQSQLPEGVPQHQLPPQYQKILERLKTLEREISGGAMAVVAVLLNNKLYVANVGTNRALLCKSTVDGLQVTQLNVDHTTENEDELFRLSQLGLDAGKIKQVGIICGQESTRRIGDYKVKYGYTDIDLLSAAKSKPIIAEPEIHGAQPLDGVTGFLVLMSEGLYKALEAAHGPGQANQEIAAMIDTEFAKQTSLDAVAQAVVDRVKRIHSDTFASGGERARFCPRHEDMTLLVRNFGYPLGEMSQPTPSPAPAAGGRVYPVSVPYSSAQSTSKTSVTLSLVMPSQGQMVNGAHSASTLDEATPTLTNQSPTLTLQSTNTHTQSSSSSSDGGLFRSRPAHSLPPGEDGRVEPYVDFAEFYRLWSVDHGEQSVVTAP
Regarding B1, the binding result was “binds”.

B2: 3×HA-TAB2 (protein, UniProt Q9NYJ8 1-693)
chain: MAQGSHQIDFQVLHDLRQKFPEVPEVVVSRCMLQNNNNLDACCAVLSQESTRYLYGEGDLNFSDDSGISGLRNHMTSLNLDLQSQNIYHHGREGSRMNGSRTLTHSISDGQLQGGQSNSELFQQEPQTAPAQVPQGFNVFGMSSSSGASNSAPHLGFHLGSKGTSSLSQQTPRFNPIMVTLAPNIQTGRNTPTSLHIHGVPPPVLNSPQGNSIYIRPYITTPGGTTRQTQQHSGWVSQFNPMNPQQVYQPSQPGPWTTCPASNPLSHTSSQQPNQQGHQTSHVYMPISSPTTSQPPTIHSSGSSQSSAHSQYNIQNISTGPRKNQIEIKLEPPQRNNSSKLRSSGPRTSSTSSSVNSQTLNRNQPTVYIAASPPNTDELMSRSQPKVYISANAATGDEQVMRNQPTLFISTNSGASAASRNMSGQVSMGPAFIHHHPPKSRAIGNNSATSPRVVVTQPNTKYTFKITVSPNKPPAVSPGVVSPTFELTNLLNHPDHYVETENIQHLTDPTLAHVDRISETRKLSMGSDDAAYTQALLVHQKARMERLQRELEIQKKKLDKLKSEVNEMENNLTRRRLKRSNSISQIPSLEEMQQLRSCNRQLQIDIDCLTKEIDLFQARGPHFNPSAIHNFYDNIGFVGPVPPKPKDQRSIIKTPKTQDTEDDEGAQWNCTACTFLNHPALIRCEQCEMPRHF
With B2, the binding entry is on record as “binds”.

B3: 3×HA-TAB3 (protein, UniProt Q8N5C8 1-712)
chain: MAQSSPQLDIQVLHDLRQRFPEIPEGVVSQCMLQNNNNLEACCRALSQESSKYLYMEYHSPDDNRMNRNRLLHINLGIHSPSSYHPGDGAQLNGGRTLVHSSSDGHIDPQHAAGKQLICLVQEPHSAPAVVAATPNYNPFFMNEQNRSAATPPSQPPQQPSSMQTGMNPSAMQGPSPPPPPPSYMHIPRYSTNPITVTVSQNLPSGQTVPRALQILPQIPSNLYGSPGSIYIRQTSQSSSGRQTPQSTPWQSSPQGPVPHYSQRPLPVYPHQQNYQPSQYSPKQQQIPQSAYHSPPPSQCPSPFSSPQHQVQPSQLGHIFMPPSPSTTPPHPYQQGPPSYQKQGSHSVAYLPYTASSLSKGSMKKIEITVEPSQRPGTAINRSPSPISNQPSPRNQHSLYTATTPPSSSPSRGISSQPKPPFSVNPVYITYTQPTGPSCTPSPSPRVIPNPTTVFKITVGRATTENLLNLVDQEERSAAPEPIQPISVIPGSGGEKGSHKYQRSSSSGSDDYAYTQALLLHQRARMERLAKQLKLEKEELERLKSEVNGMEHDLMQRRLRRVSCTTAIPTPEEMTRLRSMNRQLQINVDCTLKEVDLLQSRGNFDPKAMNNFYDNIEPGPVVPPKPSKKDSSDPCTIERKARRISVTSKVQADIHDTQAAAADEHRTGSTQSPRTQPRDEDYEGAPWNCDSCTFLNHPALNRCEQCEMPRYT
Take B3: the binding entry is “binds”.

The values are drawn from PMC7947203.
